Data as given in the supplement of paper PMC9233669.
This sample is rich in variants without activity.

Key:
biotinyl-Leu-oxazolone = assay: self-aminoacylation, catalytic enhancement (BLO) (fold over background); higher = more active; k-Seq, kA / k0A0; sequences stand for … in GGGAAUGGAUCCACAUCUACGAAUUC…UUCACUGCAGACUUGACGAAGCUG
Summary of the method: (§1)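 Mutagenized RNA pools with a 21-nt variable region (0.43 μM) reacted with each biotinyl-aminoacyl-oxazolone at 2–1250 μM. Reactions ran in 50 μL HEPES/NaCl/KCl/MgCl2/CaCl2 buffer with 5% acetonitrile, pH 6.9–7.0, for 90 minutes at room temperature. Streptavidin-captured RNA was quantified by triplicate qPCR and Illumina sequencing, and per-sequence fraction reacted was fit to a pseudo-first-order model with 1000 bootstraps. Catalytic enhancement is median kA divided by the uncatalyzed rate, the low-activity peak of a bimodal Gaussian fit.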

biotinyl-Val-oxazolone = assay: self-aminoacylation, catalytic enhancement (BVO) (fold over background); higher = more active; k-Seq, kA / k0A0; sequences stand for … in GGGAAUGGAUCCACAUCUACGAAUUC…UUCACUGCAGACUUGACGAAGCUG
Summary of the method: as §1

biotinyl-Met-oxazolone = assay: self-aminoacylation, catalytic enhancement (BMO) (fold over background); higher = more active; k-Seq, kA / k0A0; sequences stand for … in GGGAAUGGAUCCACAUCUACGAAUUC…UUCACUGCAGACUUGACGAAGCUG
Summary of the method: as §1

biotinyl-Trp-oxazolone = assay: self-aminoacylation, catalytic enhancement (BWO) (fold over background); higher = more active; k-Seq, kA / k0A0; sequences stand for … in GGGAAUGGAUCCACAUCUACGAAUUC…UUCACUGCAGACUUGACGAAGCUG
Summary of the method: as §1

biotinyl-Ile-oxazolone = assay: self-aminoacylation, catalytic enhancement (BIO) (fold over background); higher = more active; k-Seq, kA / k0A0; sequences stand for … in GGGAAUGGAUCCACAUCUACGAAUUC…UUCACUGCAGACUUGACGAAGCUG
Summary of the method: as §1

biotinyl-Phe-oxazolone = assay: self-aminoacylation, catalytic enhancement (BFO) (fold over background); higher = more active; k-Seq, kA / k0A0; sequences stand for … in GGGAAUGGAUCCACAUCUACGAAUUC…UUCACUGCAGACUUGACGAAGCUG
Summary of the method: as §1

| Sequence | self-aminoacylation (biotinyl-Leu-oxazolone) | self-aminoacylation (biotinyl-Val-oxazolone) | self-aminoacylation (biotinyl-Met-oxazolone) | self-aminoacylation (biotinyl-Trp-oxazolone) | self-aminoacylation (biotinyl-Ile-oxazolone) | self-aminoacylation (biotinyl-Phe-oxazolone) |
| --- | --- | --- | --- | --- | --- | --- |
| CCACACUUCAGUCAAUCGGUC [Fam1B.1 aminoacylation ribozyme variant] | 1.03 | 0.965 | 1.02 | 1.31 | 1.11 | 1.06 |
| CCACACUUCAUGAAAUCGGUC [Fam1B.1 aminoacylation ribozyme variant] | 0.65 | 0.73 | 0.654 | 0.546 | 0.749 | 0.535 |
| CCACACUUCAUGCAAUCCGUC [Fam1B.1 aminoacylation ribozyme variant] | 0.748 | 0.904 | 0.649 | 1.23 | 1.03 | 0.659 |
| CCACACUUCAUGCACUCGGUC [Fam1B.1 aminoacylation ribozyme variant] | 0.762 | 0.862 | 0.689 | 0.663 | 0.887 | 0.53 |
| CCACACUUCCAGCAAUAGGUC [Fam1B.1 aminoacylation ribozyme variant] | 0.535 | 0.985 | 0.687 | 0.593 | 0.91 | 1.04 |
| CCACACUUCCAGCAAUCAGUC [Fam1B.1 aminoacylation ribozyme variant] | 0.669 | 0.871 | 0.634 | 0.456 | 0.791 | 0.899 |
| CCACACUUCCAGCAAUCGCUC [Fam1B.1 aminoacylation ribozyme variant] | 1.35 | 1.83 | 1.54 | 1.59 | 1.69 | 1.22 |
| CCACACUUCCAGCAAUCGGUA [Fam1B.1 aminoacylation ribozyme variant] | 0.722 | 1.23 | 1.04 | 1.07 | 1.25 | 0.863 |
| CCACACUUCGCGCAAUCGGUC [Fam1B.1 aminoacylation ribozyme variant] | 2.41 | 2.51 | 1.68 | 2.77 | 2.21 | 10.5 |
| CCACACUUCGUGCAAUCGGUC [Fam1B.1 aminoacylation ribozyme variant] | 0.868 | 1.42 | 1.19 | 0.82 | 1 | 1.56 |
| CCACACUUCUAGCAAACGGUC [Fam1B.1 aminoacylation ribozyme variant] | 0.414 | 0.652 | 0.451 | 0.594 | 0.609 | 0.997 |
| CCACACUUCUAGUAAUCGGUC [Fam1B.1 aminoacylation ribozyme variant] | 0.661 | 0.789 | 0.619 | 0.464 | 0.782 | 0.781 |
| CCACACUUGAAGCAAGCGGUC [Fam1B.1 aminoacylation ribozyme variant] | 0.883 | 0.852 | 0.849 | 0.689 | 1 | 0.551 |
| CCACACUUGAAGCAUUCGGUC [Fam1B.1 aminoacylation ribozyme variant] | 1.76 | 2 | 1.73 | 2.09 | 1.47 | 3.66 |
| CCACACUUGAAUCAAUCGGUC [Fam1B.1 aminoacylation ribozyme variant] | 0.719 | 0.892 | 0.659 | 0.774 | 0.868 | 0.753 |
| CCACACUUUAAGAAAUCGGUC [Fam1B.1 aminoacylation ribozyme variant] | 0.782 | 0.663 | 0.607 | 0.727 | 0.841 | 0.835 |
| CCACACUUUAAGCAAUCCGUC [Fam1B.1 aminoacylation ribozyme variant] | 0.686 | 1.16 | 0.692 | 0.644 | 0.966 | 0.861 |
| CCACACUUUAAGCAAUCGGUC [Fam1B.1 aminoacylation ribozyme variant] | 0.697 | 0.911 | 0.678 | 0.728 | 0.863 | 1.18 |
| CCACACUUUAAGCACUCGGUC [Fam1B.1 aminoacylation ribozyme variant] | 0.646 | 1 | 0.791 | 0.647 | 0.881 | 0.689 |
| CCACACUUUACGCAAUCGGUC [Fam1B.1 aminoacylation ribozyme variant] | 0.946 | 1.03 | 0.856 | 1.11 | 0.976 | 0.86 |
| CCACAGUUCAAGCAACCGGUC [Fam1B.1 aminoacylation ribozyme variant] | 1.33 | 1.19 | 0.777 | 1.26 | 1.15 | 0.887 |
| CCACAGUUCAAGCGAUCGGUC [Fam1B.1 aminoacylation ribozyme variant] | 1.9 | 1.75 | 1.59 | 0.913 | 1.32 | 1.5 |
| CCACAGUUCAAGUAAUCGGUC [Fam1B.1 aminoacylation ribozyme variant] | 1 | 1.1 | 1.01 | 1.51 | 1.04 | 1.43 |
| CCACAUUACAAGCAAUCGGUC [Fam1B.1 aminoacylation ribozyme variant] | 1.04 | 1.21 | 1.16 | 1.15 | 1.3 | 1.05 |
| CCACAUUUCAAGCAAUCGGUA [Fam1B.1 aminoacylation ribozyme variant] | 1.57 | 1.64 | 1.45 | 1.25 | 1.75 | 0.971 |
| CCACAUUUCAUGCAAUCGGUC [Fam1B.1 aminoacylation ribozyme variant] | 1.34 | 1.32 | 1.17 | 1.22 | 1.34 | 1.39 |

| Sequence | self-aminoacylation (biotinyl-Leu-oxazolone) | self-aminoacylation (biotinyl-Val-oxazolone) | self-aminoacylation (biotinyl-Met-oxazolone) | self-aminoacylation (biotinyl-Trp-oxazolone) | self-aminoacylation (biotinyl-Ile-oxazolone) | self-aminoacylation (biotinyl-Phe-oxazolone) |
| --- | --- | --- | --- | --- | --- | --- |
| CCACAUUUCGAGCAAUCGGUC [Fam1B.1 aminoacylation ribozyme variant] | 1.62 | 1.52 | 1.34 | 1.48 | 1.75 | 1.04 |
| CCACCCUUCAAGCGAUCGGUC [Fam1B.1 aminoacylation ribozyme variant] | 1.58 | 1.65 | 1.3 | 1.64 | 1.21 | 1.06 |
| CCACCCUUCUAGCAAUCGGUC [Fam1B.1 aminoacylation ribozyme variant] | 0.819 | 1 | 0.971 | 0.867 | 1.1 | 0.95 |
| CCACCCUUUAAGCAAUCGGUC [Fam1B.1 aminoacylation ribozyme variant] | 0.983 | 1.21 | 0.892 | 0.888 | 1.16 | 1.34 |
| CCACGCUGCAAGCAAUCGGUC [Fam1B.1 aminoacylation ribozyme variant] | 0.911 | 1.22 | 0.874 | 1.54 | 1.11 | 1.62 |
| CCACGCUUCAAGCAACCGGUC [Fam1B.1 aminoacylation ribozyme variant] | 0.701 | 0.947 | 0.822 | 1.03 | 0.806 | 1.24 |
| CCACGCUUCAAGCAAUUGGUC [Fam1B.1 aminoacylation ribozyme variant] | 0.538 | 0.516 | 0.528 | 0.704 | 0.551 | 1.34 |
| CCACGCUUCAAGCUAUCGGUC [Fam1B.1 aminoacylation ribozyme variant] | 0.687 | 0.91 | 0.549 | 0.819 | 0.755 | 0.707 |
| CCACGCUUCGAGCAAUCGGUC [Fam1B.1 aminoacylation ribozyme variant] | 0.853 | 1.43 | 0.984 | 1.14 | 1.08 | 0.943 |
| CCACGCUUCUAGCAAUCGGUC [Fam1B.1 aminoacylation ribozyme variant] | 0.725 | 0.847 | 0.549 | 0.578 | 0.779 | 0.578 |
| CCACUCUUCAAGCGAUCGGUC [Fam1B.1 aminoacylation ribozyme variant] | 0.926 | 1.24 | 1.18 | 1.57 | 1.25 | 1.33 |
| CCACUUCAAACAAUCGGUUUG [Fam1A.1 aminoacylation ribozyme variant] | 2.57 | 1.83 | 1.37 | 39.5 | 1.39 | 80.3 |
| CCACUUCAAACAAUUGGUCUG [Fam1A.1 aminoacylation ribozyme variant] | 1.02 | 0.957 | 0.959 | 1.26 | 1.06 | 1.85 |
| CCACUUCAAACCAUCGGUCUG [Fam1A.1 aminoacylation ribozyme variant] | 1.24 | 1.29 | 0.947 | 1.16 | 1.31 | 1.49 |
| CCACUUCACACAAUCGGUCUG [Fam1A.1 aminoacylation ribozyme variant] | 1.02 | 1.51 | 1.31 | 0.937 | 1.28 | 1.68 |
| CCAGACUUCAAGCAAUCGGAC [Fam1B.1 aminoacylation ribozyme variant] | 1.17 | 1.45 | 1.17 | 1.58 | 1.3 | 1.78 |
| CCAGACUUCUAGCAAUCGGUC [Fam1B.1 aminoacylation ribozyme variant] | 0.921 | 0.965 | 0.901 | 0.774 | 1.11 | 0.821 |
| CCAUACCUCAAGCAAUCGGUC [Fam1B.1 aminoacylation ribozyme variant] | 1.12 | 1.4 | 0.988 | 1.1 | 1.28 | 1.62 |
| CCAUACUUCAAGCAAACGGUC [Fam1B.1 aminoacylation ribozyme variant] | 0.639 | 0.81 | 0.748 | 0.61 | 0.703 | 0.805 |
| CCAUACUUCAAGCAAUCGCUC [Fam1B.1 aminoacylation ribozyme variant] | 1.81 | 1.2 | 1.2 | 0.974 | 1.29 | 0.755 |
| CCAUACUUCAAGCAAUCGGGC [Fam1B.1 aminoacylation ribozyme variant] | 1.61 | 1.73 | 1.53 | 1.15 | 1.95 | 2.06 |
| CCAUACUUCGAGCAAUCGGUC [Fam1B.1 aminoacylation ribozyme variant] | 1.18 | 1.33 | 0.961 | 1.26 | 1.19 | 1.19 |
| CCCCACUUCAAGCAAUCUGUC [Fam1B.1 aminoacylation ribozyme variant] | 0.451 | 0.718 | 0.504 | 1.19 | 0.526 | 1.97 |
| CCGCACUUCAAGCAGUCGGUC [Fam1B.1 aminoacylation ribozyme variant] | 1.15 | 1.51 | 1.26 | 1.4 | 1.08 | 1.44 |
| CCGCACUUCUAGCAAUCGGUC [Fam1B.1 aminoacylation ribozyme variant] | 0.831 | 1.22 | 0.83 | 0.775 | 1.06 | 0.997 |
